In test [1] the target is GST-human NOGO-A56 (human) [GST: P08515]. As to the kind of experiment: ELISA, coated GST-human NOGO-A56, transfection supernatant, anti-human kappa-HRP, OD 490 nm.
Test [2] has the same target. As to the kind of experiment: ELISA, GST-human NOGO-A56 coated; small scale transient supernatants in triplicate.
Test [3] has the same target. The test is described as follows: ELISA, coated GST-human NOGO-A56, purified antibody, anti-human kappa-HRP, OD 490 nm. For orientation: ELISA stands for enzyme-linked immunosorbent assay.

No constants are given. Whether binding was seen depends on the method and setting. Some binding calls cover weakened binding; strength is not graded here.

B1: H15L16 (antibody, human IgG1, kappa, V domains shown)
VH: QVQLVQSGAEVVKPGASVKLSCKASGYTFTSYWMHWVKQRPGQGLEWIGNINPSNGGTNYNEKFKSKATLTVDTSSSTAYMELSSLRSEDSAVYYCELGQGYWGQGTLVTVSS
VL: DIVMTQSPLSNPVTLGQPVSISCRSSKSLLYKDGKTYLNWFLQRPGQSPQLLIYLMSTRASGVPDRFSGGGSGTDFTLKISRVEAEDVGVYYCQQLVEYPLTFGQGTKLEIKR
For the molecule B1, the binding result in test [1] is recorded as “binds”.

B2: H18L17 (antibody, V domains shown)
VH: QVQLVQSGAEVVKPGASVKLSCKASGYTFTSYWMHWVKQRPGQGLEWIGNINPSNGGTNYNEKFKSKATLTVDKSSSTAYMELSSLRSEDSAVYYCELGQGYWGQGTLVTVSS
VL: DIVMTQDPLSLPVTLGQPASISCRSSKSLLYKDGKTYLNWFQQRPGQSPQLLIYLMSTRASGVSDRFSGSGSGTDFTLKISRVEAEDVGVYYCQQLVEYPLTFGQGTKLEIKR
Take B2: the binding entry in test [1] is on record as “binds”.

B3: H6L15 (antibody, human IgG1, kappa, V domains shown)
VH: QVQLVQSGAEVKKPGASVKVSCKASGYTFTSYWMHWVRQAPGQGLEWIGNINPSNGGTNYNEKFKSRATMTRDTSTSTAYMELSSLRSEDTAVYYCELGQGYWGQGTLVTVSS
VL: DIVMTQSPLSLPVTLGQPASISCRSSKSLLYKDGKTYLNWFLQRPGQSPQLLIYLMSTRASGVSDRFSGGGSGTDFTLKISRVEAEDVGVYYCQQLVEYPLTFGQGTKLEIKR
On to B3, for which, in test [1], the binding entry was “binds”.

B4: H15L18 (antibody, human IgG1, kappa, V domains shown)
VH: QVQLVQSGAEVVKPGASVKLSCKASGYTFTSYWMHWVKQRPGQGLEWIGNINPSNGGTNYNEKFKSKATLTVDTSSSTAYMELSSLRSEDSAVYYCELGQGYWGQGTLVTVSS
VL: DIVMTQDPLSNPVTLGQPVSISCRSSKSLLYKDGKTYLNWFLQRPGQSPQLLIYLMSTRASGVSDRFSGSGSGTDFTLKISRVEAEDVGVYYCQQLVEYPLTFGQGTKLEIKR
For the molecule B4, the binding result in test [1] was “binds”.

B5: H18L16 (antibody, human IgG1, kappa, V domains shown)
VH: QVQLVQSGAEVVKPGASVKLSCKASGYTFTSYWMHWVKQRPGQGLEWIGNINPSNGGTNYNEKFKSKATLTVDKSSSTAYMELSSLRSEDSAVYYCELGQGYWGQGTLVTVSS
VL: DIVMTQSPLSNPVTLGQPVSISCRSSKSLLYKDGKTYLNWFLQRPGQSPQLLIYLMSTRASGVPDRFSGGGSGTDFTLKISRVEAEDVGVYYCQQLVEYPLTFGQGTKLEIKR
Consider B5, for which the binding result in test [2], in test [3] and in test [1] was “binds” in each case.

B6: H16L17 (antibody, V domains shown)
VH: QVQLVQSGAEVKKPGASVKVSCKASGYTFTSYWMHWVKQRPGQGLEWIGNINPSNGGTNYNEKFKSKATLTVDKSTSTAYMELSSLRSEDTAVYYCELGQGYWGQGTLVTVSS
VL: DIVMTQDPLSLPVTLGQPASISCRSSKSLLYKDGKTYLNWFQQRPGQSPQLLIYLMSTRASGVSDRFSGSGSGTDFTLKISRVEAEDVGVYYCQQLVEYPLTFGQGTKLEIKR
For B6, the binding entry in test [1] was “binds”.

B7: H6L17 (antibody, human IgG1, kappa, V domains shown)
VH: QVQLVQSGAEVKKPGASVKVSCKASGYTFTSYWMHWVRQAPGQGLEWIGNINPSNGGTNYNEKFKSRATMTRDTSTSTAYMELSSLRSEDTAVYYCELGQGYWGQGTLVTVSS
VL: DIVMTQDPLSLPVTLGQPASISCRSSKSLLYKDGKTYLNWFQQRPGQSPQLLIYLMSTRASGVSDRFSGSGSGTDFTLKISRVEAEDVGVYYCQQLVEYPLTFGQGTKLEIKR
For the molecule B7, the binding entry in test [1] is given as “binds”.

B8: H14L17 (antibody, V domains shown)
VH: QVQLVQSGAEVVKPGASVKLSCKASGYTFTSYWMHWVKQAPGQGLEWIGNINPSNGGTNYNEKFKSRATLTRDTSTSTAYMELSSLRSEDTAVYYCELGQGYWGQGTLVTVSS
VL: DIVMTQDPLSLPVTLGQPASISCRSSKSLLYKDGKTYLNWFQQRPGQSPQLLIYLMSTRASGVSDRFSGSGSGTDFTLKISRVEAEDVGVYYCQQLVEYPLTFGQGTKLEIKR
On to B8, for which the binding result in test [1] is given as “binds”.

B9: H1L11 (antibody, human IgG1, kappa, V domains shown)
VH: QVQLVQSGAEVKKPGASVKVSCKASGYTFTSYWMHWVRQAPGQGLEWMGNINPSNGGTNYNEKFKSRVTMTRDTSTSTVYMELSSLRSEDTAVYYCELGQGYWGQGTLVTVSS
VL: DIVITQSPLSLPVTLGQPASISCRSSKSLLYKDGKTYLNWFQQRPGQSPQLLIYLMSTRASGVPDRFSGGGSGTDFTLKISRVEAEDVGVYYCQQLVEYPLTFGQGTKLEIKR
For the molecule B9, the binding entry in test [1] was “binds”.

B10: H18L13 (antibody, human IgG1, kappa, V domains shown)
VH: QVQLVQSGAEVVKPGASVKLSCKASGYTFTSYWMHWVKQRPGQGLEWIGNINPSNGGTNYNEKFKSKATLTVDKSSSTAYMELSSLRSEDSAVYYCELGQGYWGQGTLVTVSS
VL: DIVMTQSPLSLPVTLGQPASISCRSSKSLLYKDGKTYLNWFQQRPGQSPQLLIYLMSTRASGVPDRFSGGGSGTDFTLKISRVEAEDVGVYYCQQLVEYPLTFGQGTKLEIKR
B10: the binding entry in test [1] is “binds”.

B11: H15L17 (antibody, V domains shown)
VH: QVQLVQSGAEVVKPGASVKLSCKASGYTFTSYWMHWVKQRPGQGLEWIGNINPSNGGTNYNEKFKSKATLTVDTSSSTAYMELSSLRSEDSAVYYCELGQGYWGQGTLVTVSS
VL: DIVMTQDPLSLPVTLGQPASISCRSSKSLLYKDGKTYLNWFQQRPGQSPQLLIYLMSTRASGVSDRFSGSGSGTDFTLKISRVEAEDVGVYYCQQLVEYPLTFGQGTKLEIKR
B11: the binding entry in test [1] is given as “binds”.

B12: H6L18 (antibody, human IgG1, kappa, V domains shown)
VH: QVQLVQSGAEVKKPGASVKVSCKASGYTFTSYWMHWVRQAPGQGLEWIGNINPSNGGTNYNEKFKSRATMTRDTSTSTAYMELSSLRSEDTAVYYCELGQGYWGQGTLVTVSS
VL: DIVMTQDPLSNPVTLGQPVSISCRSSKSLLYKDGKTYLNWFLQRPGQSPQLLIYLMSTRASGVSDRFSGSGSGTDFTLKISRVEAEDVGVYYCQQLVEYPLTFGQGTKLEIKR
As to B12, the binding entry in test [1] is listed as “binds”.

B13: H14L16 (antibody, human IgG1, kappa, V domains shown)
VH: QVQLVQSGAEVVKPGASVKLSCKASGYTFTSYWMHWVKQAPGQGLEWIGNINPSNGGTNYNEKFKSRATLTRDTSTSTAYMELSSLRSEDTAVYYCELGQGYWGQGTLVTVSS
VL: DIVMTQSPLSNPVTLGQPVSISCRSSKSLLYKDGKTYLNWFLQRPGQSPQLLIYLMSTRASGVPDRFSGGGSGTDFTLKISRVEAEDVGVYYCQQLVEYPLTFGQGTKLEIKR
B13: the binding entry in test [1] was “binds”.

B14: H14L13 (antibody, human IgG1, kappa, V domains shown)
VH: QVQLVQSGAEVVKPGASVKLSCKASGYTFTSYWMHWVKQAPGQGLEWIGNINPSNGGTNYNEKFKSRATLTRDTSTSTAYMELSSLRSEDTAVYYCELGQGYWGQGTLVTVSS
VL: DIVMTQSPLSLPVTLGQPASISCRSSKSLLYKDGKTYLNWFQQRPGQSPQLLIYLMSTRASGVPDRFSGGGSGTDFTLKISRVEAEDVGVYYCQQLVEYPLTFGQGTKLEIKR
On to B14, for which, in test [1], the binding entry is reported as “binds”.

B15: H6L13 (antibody, human IgG1, kappa, V domains shown)
VH: QVQLVQSGAEVKKPGASVKVSCKASGYTFTSYWMHWVRQAPGQGLEWIGNINPSNGGTNYNEKFKSRATMTRDTSTSTAYMELSSLRSEDTAVYYCELGQGYWGQGTLVTVSS
VL: DIVMTQSPLSLPVTLGQPASISCRSSKSLLYKDGKTYLNWFQQRPGQSPQLLIYLMSTRASGVPDRFSGGGSGTDFTLKISRVEAEDVGVYYCQQLVEYPLTFGQGTKLEIKR
Turning to B15, the binding result in test [3] and in test [1] was “binds” in each case.

B16: H18L18 (antibody, human IgG1, kappa, V domains shown)
VH: QVQLVQSGAEVVKPGASVKLSCKASGYTFTSYWMHWVKQRPGQGLEWIGNINPSNGGTNYNEKFKSKATLTVDKSSSTAYMELSSLRSEDSAVYYCELGQGYWGQGTLVTVSS
VL: DIVMTQDPLSNPVTLGQPVSISCRSSKSLLYKDGKTYLNWFLQRPGQSPQLLIYLMSTRASGVSDRFSGSGSGTDFTLKISRVEAEDVGVYYCQQLVEYPLTFGQGTKLEIKR
In the case of B16, the binding result in test [1] is reported as “binds”.

B17: H14L18 (antibody, human IgG1, kappa, V domains shown)
VH: QVQLVQSGAEVVKPGASVKLSCKASGYTFTSYWMHWVKQAPGQGLEWIGNINPSNGGTNYNEKFKSRATLTRDTSTSTAYMELSSLRSEDTAVYYCELGQGYWGQGTLVTVSS
VL: DIVMTQDPLSNPVTLGQPVSISCRSSKSLLYKDGKTYLNWFLQRPGQSPQLLIYLMSTRASGVSDRFSGSGSGTDFTLKISRVEAEDVGVYYCQQLVEYPLTFGQGTKLEIKR
In the case of B17, the binding result in test [1] is reported as “binds”.

B18: H15L13 (antibody, human IgG1, kappa, V domains shown)
VH: QVQLVQSGAEVVKPGASVKLSCKASGYTFTSYWMHWVKQRPGQGLEWIGNINPSNGGTNYNEKFKSKATLTVDTSSSTAYMELSSLRSEDSAVYYCELGQGYWGQGTLVTVSS
VL: DIVMTQSPLSLPVTLGQPASISCRSSKSLLYKDGKTYLNWFQQRPGQSPQLLIYLMSTRASGVPDRFSGGGSGTDFTLKISRVEAEDVGVYYCQQLVEYPLTFGQGTKLEIKR
For the molecule B18, the binding result in test [1] is listed as “binds”.

The record behind these values is patent US20060029603A1.
